Here are results for three substances from paper PMC517496.

No constants are given. Whether binding was seen depends on the method and setting. In cells and extracts the contact can be indirect. A result given as binding can be weak or reduced; the word gives no strength.

In the experiment the target is T1, Bel1/Tas trans-activator of primate foamy virus (PFV) (primate foamy virus (PFV)) (UniProt P14353).
T1 sequence: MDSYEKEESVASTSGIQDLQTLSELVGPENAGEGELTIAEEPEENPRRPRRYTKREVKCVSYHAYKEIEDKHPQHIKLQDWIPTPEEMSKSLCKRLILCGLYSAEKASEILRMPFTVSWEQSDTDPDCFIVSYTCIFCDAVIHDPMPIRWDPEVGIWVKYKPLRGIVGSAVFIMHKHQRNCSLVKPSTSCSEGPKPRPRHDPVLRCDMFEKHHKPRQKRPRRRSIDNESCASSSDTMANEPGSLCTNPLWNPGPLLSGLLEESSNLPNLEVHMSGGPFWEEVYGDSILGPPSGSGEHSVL
Kind of experiment: co-IP; 293T cells cotransfected with pbel1s and FLAG-tagged partner; lysis in 150 mM NaCl, 20 mM Tris-HCl pH 7.5, 1% Triton X-100; precipitated with rabbit anti-Bel1 antiserum and protein A-Sepharose, washed three times with lysis buffer; immunoblot with monoclonal anti-FLAG.
As for “FLAG-p300C (C-terminal region of p300, construct no. 4) (human) (domain or fragment)”, the binding entry is recorded as “no binding”.

As for “FLAG-p300N (amino-terminal region of p300, construct no. 2) (human) (domain or fragment)”, the binding entry is recorded as “binds”.

As for “FLAG-p300N-C/H1-ΔKIX* (construct no. 5) (human) (domain or fragment)”, the binding result is “binds”.
